From PMC10456368 come the findings set out here.

These are yes or no findings as the source states them, for the method shown. In cells and extracts the contact can be indirect.

This test addresses Wt PTEN (human wild type PTEN) (human), P60484. Briefly: co-IP; lysates of PTEN-overexpressed PC3 cells (50 mM Tris pH 7.5, 10% glycerol, 5 mM MgCl2, 150 mM NaCl, 0.2% NP-40) incubated with anti-PTEN (138G6) or control IgG overnight at 4 °C, protein G sepharose; MTHFD1 detected by immunoblot. The conditions noted are these: remark: other sources report otherwise. For orientation: A western blot detects proteins with antibodies after separation by electrophoresis.

B1: methylenetetrahydrofolate dehydrogenase 1 (MTHFD1), P11586 1-935 (enzyme)
chain: MAPAEILNGKEISAQIRARLKNQVTQLKEQVPGFTPRLAILQVGNRDDSNLYINVKLKAAEEIGIKATHIKLPRTTTESEVMKYITSLNEDSTVHGFLVQLPLDSENSINTEEVINAIAPEKDVDGLTSINAGKLARGDLNDCFIPCTPKGCLELIKETGVPIAGRHAVVVGRSKIVGAPMHDLLLWNNATVTTCHSKTAHLDEEVNKGDILVVATGQPEMVKGEWIKPGAIVIDCGINYVPDDKKPNGRKVVGDVAYDEAKERASFITPVPGGVGPMTVAMLMQSTVESAKRFLEKFKPGKWMIQYNNLNLKTPVPSDIDISRSCKPKPIGKLAREIGLLSEEVELYGETKAKVLLSALERLKHRPDGKYVVVTGITPTPLGEGKSTTTIGLVQALGAHLYQNVFACVRQPSQGPTFGIKGGAAGGGYSQVIPMEEFNLHLTGDIHAITAANNLVAAAIDARIFHELTQTDKALFNRLVPSVNGVRRFSDIQIRRLKRLGIEKTDPTTLTDEEINRFARLDIDPETITWQRVLDTNDRFLRKITIGQAPTEKGHTRTAQFDISVASEIMAVLALTTSLEDMRERLGKMVVASSKKGEPVSAEDLGVSGALTVLMKDAIKPNLMQTLEGTPVFVHAGPFANIAHGNSSIIADRIALKLVGPEGFVVTEAGFGADIGMEKFFNIKCRYSGLCPHVVVLVATVRALKMHGGGPTVTAGLPLPKAYIQENLELVEKGFSNLKKQIENARMFGIPVVVAVNAFKTDTESELDLISRLSREHGAFDAVKCTHWAEGGKGALALAQAVQRAAQAPSSFQLLYDLKLPVEDKIRIIAQKIYGADDIELLPEAQHKAEVYTKQGFGNLPICMAKTHLSLSHNPEQKGVPTGFILPIRDIRASVGAGFLYPLVGTMSTMPGLPTRPCFYDIDLDPETEQVNGLF
As for B1, the binding entry was “no binding”.
